Chains of the proteins cited; added tags and fusions are not shown.
UniProt Q99808, whole entry: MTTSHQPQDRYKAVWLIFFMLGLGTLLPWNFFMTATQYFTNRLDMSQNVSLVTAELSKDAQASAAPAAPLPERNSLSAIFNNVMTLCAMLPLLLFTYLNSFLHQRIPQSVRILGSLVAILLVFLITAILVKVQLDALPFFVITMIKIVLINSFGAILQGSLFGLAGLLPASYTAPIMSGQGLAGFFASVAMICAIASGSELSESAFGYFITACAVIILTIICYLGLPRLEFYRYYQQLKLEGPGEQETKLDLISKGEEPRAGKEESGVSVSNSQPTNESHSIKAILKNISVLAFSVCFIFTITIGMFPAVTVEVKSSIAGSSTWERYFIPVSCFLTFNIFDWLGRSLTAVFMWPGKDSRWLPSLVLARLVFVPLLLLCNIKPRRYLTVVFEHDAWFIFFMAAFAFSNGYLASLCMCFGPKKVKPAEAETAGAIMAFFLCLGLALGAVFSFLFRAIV

According to US20240368183A1, “Macrocyclic Compounds Having ENT1 Inhibiting Activity” (iTeos Belgium SA, priority 2021, published 2024):

Biological target: human ENT1 (Homo sapiens, UniProt Q99808)
Assay: ENT1 binding assay (competition with Sahenta-DY647)
Details: read-out: Binding Assay IC50; JAR cells expressing ENT1; competition with Sahenta-DY647 (100 nM); 4° C.; tested form: TFA
Method: The present assay aims at showing that the compounds of the present disclosure can bind to human ENT1. The principle of the assay is a competition between the compounds of this present disclosure and Sahenta-DY647, an ENT1 inhibitor that emits fluorescence (Ex=630 nm, Em=670 nm). By measuring the fluorescence at the end of the assay we could assess the binding potency of the compounds of the present disclosure.
JAR cells expressing ENT1 were bought from ATCC® (HTB-144TM). Cells were cultured in RPMI 1640 medium (LONZA®, #BE12-702F/U1) supplemented with 10% FBS (GIBCO®, #10270-106), 10 mM Hepes (LONZA®, #BE17-737E), 1 mM Sodium Pyruvate (LONZA®, #BE13-115E) and 2% Penicillin/Streptomycin (LONZA®, #DE17-603E) at 37° C. and 5% CO2. The assay was conducted on the following buffer: HBSS (LONZA®, #LO-527F) supplemented with 10 mM Hepes (LONZA®, #BE17-737E) and 0.1% BSA (Miltenyi®, #130-091-376) on the day of the assay.
JAR cells were resuspended in the described buffer. Compounds of the present disclosure and Sahenta-DY647 were diluted 200× in the described buffer.
A total of 50 000 cells were pre-incubated for 30 min at 4° C. with the compounds of the present disclosure before adding the corresponded IC90 of Sahenta-DY647 (100 nM) and incubate once more for 30 min at 4° C. […]

Molecule `COc1cc(C(=O)O[C@@H]2CCCOc3cc(cc(OC)c3OC)C(=O)NCCCN3CCN(CC2)CC3)cc(OC)c1OC` has an IC50 of 20 to 500 nM.

The structures given here were assigned with low confidence; some may be wrong.
